Data set [1] relates to ischemic heart models of rats. The experiment in a line: Heart protective (anti-ischemic) activity in ischemic heart models of anesthetized rats. Format: in vivo. To be noted: 45 min occlusion, 90 min reperfusion. On the procedure: Male rats (350-450 g, obtained from the Experimental Animal Team of the Korea Research Institute of Chemical Technology) were anesthetized by the intraperitoneal injection of pentobarbital at a dose of 75 mg/kg. After trachetomy, the rats were rendered to respire artificially at a rate of 60/min with a stroke volume of 10 ml/kg. Cannulars were inserted into the fermoral vein and the fermoral artery and used for drug administration and blood pressure measurement, respectively.
In the ischemic myocardium damage models, the body temperature has an important influence on the results. To avoid the change in the body temperature, a body temperature measuring probe was inserted into the rectum of each rat and the body temperature was constantly kept at 37 °C with the aid of a homeothermic blanket control unit.
Afterwards, during testing, a continuous measurement was made of the mean arterial blood pressures and heart rates from the rats. For the measurement of the blood pressure, a pressure transducer, such as that manufactured by Grass Ins., MA, U.S.A., identified as Model Statham P23XL, was used. The heart rate was measured by a tachometer, such as that manufactured by Gould Inc., OH, U.S.A., identified as Biotachometer. In addition, all of the changes occurring were continuously recorded through the Gould 2000 chart recorder, manufactured by Gould Inc.
The left coronary artery was occluded according to the Selye H. method as follows. The rats underwent a left thoracotomy operation for partial opening of the chest and the right-side chest was pressurized by the middle finger of the left hand to push the heart out. Immediately after the left anterior descending coronary artery hereinafter referred to as (LAD) was carefully stitched using a suture needle with 5-0 silk ligature, the heart was then repositioned in the thoracic cavity while both ends of the ligature were situated outside. The opposite ligature ends were passed through a PE tube (PE100, 2.5 cm) and allowed to stand loose for 20 min for stabilization. Via the cannula inserted into the femoral vein, vehicles or drugs were administered into the rats which were rendered to stand for 30 min in order to sufficiently elicit the efficacies of the drugs. BMS-180448 was used as a control drug and the i.v.administration dose was 0.3 mg/kg for all test drugs of interest and the control drug.
Next, the PE tube which had the doubled strands of the ligature passed therethrough was pushed toward the heart and then, set upright by tightly pulling end regions of the ligature with a hemostatic pincette while pressing the coronary artery. The PE tube was allowed to stand for 45 min for the occlusion of the coronary artery, followed by the removal of the hemostatic pincette and then, by the reperfusion for 90 min.
After the reocclusion of the coronary artery in accordance with the above procedure, the rats were administered with 2 ml of a 1% Evans blue through an intravenous route. Subsequently, an excess of pentobarbital was intravenously injected to kill the rats, after which the heart was removed and then, deprived of the right ventricle and both atria. The left ventricle was cut horizontally to the heart apex into 5 or 6 slices which were weighed. From the surface of each slice, images were input with the aid of a Hi-scope into a computer installed with an image analyzing program (Image Pro Plus). From the images input into the computer, the area of the normal blood stream tissue region which appeared blue in a computer monitor and the area which appeared colorless were measured. The percentage of the colorless area to the total area of each slice was calculated and multiplied by the weight of each slice to determine the area at risk (AAR) of each slice. […]

The test system of data set [2] is ischemic heart models of beagle dogs. The experiment in a line: Heart protective (anti-ischemic) activity in ischemic heart models of anesthetized beagle dogs. The data set is classed as in vivo. To be noted: total dose 2 mg/kg infused i.v. over 40 min, 90 min occlusion, 5 h reperfusion. As to the method:
In order to determine whether the compounds of the formula 1 are protective for the ischemic hearts of larger animals, experiments determining the anti-ischemic effects of the compounds on beagle dogs were conducted as follows. The experiments on beagle dogs followed the method of Grover et al.' (G. J. Grover et al., J. Cardiovasc. Pharmacol. 25, 40 (1995)).
After being anesthetized by an intravenous injection of pentobarbital at a dose of 35 mg/kg, male beagle dogs (8-12 kg) were further infused with pentobarbital sodium at a dose of 3-4 mg/kg through the right cephalic vein throughout the experiments, so as to keep the anesthesia constant. […] The heart rate was measured by a tachometer, such as that manufactured by Gould Inc., OH, U.S.A., identified as Biotachometer. In addition, all of the changes occurring during the experiment were continuously recorded through the Gould 2000 chart recorder, manufactured by Gould Inc.
The fifth intercostal space was incised to open the thorax and the LAD was separated from its surrounding tissues. […] The LAD part upstream of the silk ligature was isolated from adjacent tissues and the blood flow was measured quantitatively. […] Using polygraph such as Grass Model 7E, the electrocardiogram was measured and read (Lead II). […]

With `COC(OC)[C@@]1(C)Oc2ccc([N+](=O)[O-])cc2[C@@H](NC(=NC#N)NCc2ccccc2)[C@@H]1OC(C)=O` [Example 38, (2S, 3S, 4R)-N''-cyano-N-(6-nitro-3,4-dihydro-3-acetoxy-2-methyl-2-dimethoxymethyl-2H-benzopyran-4-yl)-N'-benzylguanidine], the “Anti-ischemic Activity (in vivo, rats) (0.3 mg/kg i.v.) AAR/LV (%)” value (“Anti-ischemic Activity (in vivo, rats) … (%)” below) in data set [1] is 38.26%. With `CC1(C)Oc2ccc(C#N)cc2[C@@H](NC(=NC#N)Nc2ccc(Cl)cc2)[C@@H]1O` [BMS-180448, reference compound], the “Anti-ischemic Activity (in vivo, dogs) (2 mg/kg/40 i.v.) min,i.v.) AAR/LV (%)” value in data set [2] is 37.73%. Further, the “Anti-ischemic Activity (in vivo, rats) … (%)” value in data set [1] is 38.83%.

As for `COC(OC)[C@@]1(C)Oc2ccc([N+](=O)[O-])cc2[C@@H](NC(=NC#N)NCc2ccccc2)[C@@H]1O` [Example 25, (2S, 3S, 4R)-N''-cyano-N-(6-nitro-3,4-dihydro-3-hydroxy-2-methyl-2-dimethoxymethyl-2H-benzopyran-4-yl)-N'-benzylguanidine], the “Anti-ischemic Activity (in vivo, rats) … (%)” value in data set [1] is 36.88%. Same read-out and setting: as for `COC(OC)[C@@]1(C)Oc2ccc([N+](=O)[O-])cc2[C@H](NC(=NC#N)Nc2ccccc2Cl)[C@H]1O` [Example 32, (2S, 3R, 4S)-N''-cyano-N-(6-nitro-3,4-dihydro-3-hydroxy-2-methyl-2-dimethoxymethyl-2H-benzopyran-4-yl)-N'-(2-chlorophenyl)guanidine], the figure is 42.49%. With `COC(OC)[C@@]1(C)Oc2ccc([N+](=O)[O-])cc2[C@H](NC(=NC#N)NCc2ccccc2)[C@H]1O` [Example 24, (2S, 3R, 4S)-N''-cyano-N-(6-nitro-3,4-dihydro-3-hydroxy-2-methyl-2-dimethoxymethyl-2H-benzopyran-4-yl)-N'-benzylguanidine], in data set [2], the “Anti-ischemic Activity (in vivo, dogs) (2 mg/kg/40 i.v.) min,i.v.) AAR/LV (%)” value was 35.33%. The “Anti-ischemic Activity (in vivo, rats) … (%)” value in data set [1] stood at 37.92%.

In the case of `COC(OC)[C@@]1(C)Oc2ccc(NC(C)=O)cc2[C@@H](NC(=NC#N)NCc2ccccc2)[C@@H]1O` [Example 41], the “Anti-ischemic Activity (in vivo, rats) … (%)” value in data set [1] was 33.59%.
